In patent publication US20060194268A1, “Method for measuring spinorphin” (priority 2005, published 2006):
No end group written: not given here.

Experiment: Measurement of spinorphin in the synovial fluid from RA and OA patients
Design: species or system human

LVVYPWT [Spinorphin, Leu-Val-Val-Tyr-Pro-Trp-Thr]
amount of spinorphin in the synovial fluid (joints of OA patients (n=23)): 10.1 ± 7.1 ng/mL
amount of spinorphin in the synovial fluid (joints of RA patients (n=20)): 4.2 ± 3.4 ng/mL
